According to publication PMC10371797:
No constants are given. Whether binding was seen depends on the method and setting. Binding seen in cells or lysates may run through a third protein. Some results given as binding are weak or reduced against the parent protein; the word gives no strength. For part of these data: Sequences can lack the tags named with a protein.

Chains of the proteins cited; added tags and fusions are not shown.
UniProt O00505: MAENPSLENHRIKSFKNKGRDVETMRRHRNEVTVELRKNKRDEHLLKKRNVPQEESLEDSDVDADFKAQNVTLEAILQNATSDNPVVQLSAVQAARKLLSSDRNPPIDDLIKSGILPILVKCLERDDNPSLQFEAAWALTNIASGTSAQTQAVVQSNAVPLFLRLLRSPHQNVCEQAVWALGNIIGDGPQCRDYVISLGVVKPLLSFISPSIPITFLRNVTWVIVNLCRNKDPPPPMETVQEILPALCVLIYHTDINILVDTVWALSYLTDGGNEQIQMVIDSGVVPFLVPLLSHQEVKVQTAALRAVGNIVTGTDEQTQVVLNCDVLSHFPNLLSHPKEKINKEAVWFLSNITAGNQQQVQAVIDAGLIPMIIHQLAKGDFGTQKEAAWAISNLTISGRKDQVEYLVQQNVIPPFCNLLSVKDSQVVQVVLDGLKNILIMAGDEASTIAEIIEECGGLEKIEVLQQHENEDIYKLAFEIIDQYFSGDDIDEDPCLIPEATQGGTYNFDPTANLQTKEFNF

Experiments:
Experiment in all cases: co-IP
PABPN1-Flag = molecular target: T1, PABPN1-Flag (UniProt Q86U42)
T1 sequence: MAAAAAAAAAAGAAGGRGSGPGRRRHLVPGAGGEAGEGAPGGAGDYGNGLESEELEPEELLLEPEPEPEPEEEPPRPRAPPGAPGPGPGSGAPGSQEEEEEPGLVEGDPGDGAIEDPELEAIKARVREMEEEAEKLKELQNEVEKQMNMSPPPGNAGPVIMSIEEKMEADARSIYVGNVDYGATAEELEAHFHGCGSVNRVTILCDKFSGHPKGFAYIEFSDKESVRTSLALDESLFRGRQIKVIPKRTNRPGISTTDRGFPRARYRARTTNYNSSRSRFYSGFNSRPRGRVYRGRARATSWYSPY

ZC3H11A(wt)-Flag (human) = ZC3H11A(wt)-Flag (human) (UniProt O75152)
[1] = molecular target: T2, ZC3H11A(KR5>A/Δ661–699)-Flag (human) (UniProt O75152)
T2 sequence: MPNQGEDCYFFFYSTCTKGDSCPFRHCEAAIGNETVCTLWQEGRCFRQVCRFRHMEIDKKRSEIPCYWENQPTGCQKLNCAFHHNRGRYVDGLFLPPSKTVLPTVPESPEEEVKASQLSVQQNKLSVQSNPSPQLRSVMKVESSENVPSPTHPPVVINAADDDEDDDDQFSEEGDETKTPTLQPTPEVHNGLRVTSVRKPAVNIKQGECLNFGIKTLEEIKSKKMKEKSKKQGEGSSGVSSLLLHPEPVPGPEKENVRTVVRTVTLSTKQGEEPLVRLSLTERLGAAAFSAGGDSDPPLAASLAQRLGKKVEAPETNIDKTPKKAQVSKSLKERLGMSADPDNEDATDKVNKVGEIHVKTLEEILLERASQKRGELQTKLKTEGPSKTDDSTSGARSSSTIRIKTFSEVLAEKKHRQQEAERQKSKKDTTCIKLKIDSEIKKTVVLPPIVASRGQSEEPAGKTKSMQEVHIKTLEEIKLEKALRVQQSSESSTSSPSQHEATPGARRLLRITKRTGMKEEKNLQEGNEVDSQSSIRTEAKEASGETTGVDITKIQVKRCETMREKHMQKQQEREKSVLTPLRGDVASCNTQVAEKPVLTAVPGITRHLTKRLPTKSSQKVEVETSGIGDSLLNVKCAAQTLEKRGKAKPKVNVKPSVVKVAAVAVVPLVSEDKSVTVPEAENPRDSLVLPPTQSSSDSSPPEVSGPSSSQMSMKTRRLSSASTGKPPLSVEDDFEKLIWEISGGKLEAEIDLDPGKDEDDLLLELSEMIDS

| binding (PABPN1-Flag) | binding (ZC3H11A(wt)-Flag (human)) | binding [1] | Substance |
| --- | --- | --- | --- |
| binds |  |  | ZC3H11A(wt)-HA (from UniProt O75152 1-810) |
|  | binds | no binding | karyopherin subunit alpha 3 (KPNA3), endogenous, HeLa cells (from UniProt O00505 1-521) |
